{"source": "paper PMC6265779", "key": {"[1]": {"target": "T1, φ6 protein P1 (bacteriophage φ6) (UniProt P11126)", "T1 sequence": "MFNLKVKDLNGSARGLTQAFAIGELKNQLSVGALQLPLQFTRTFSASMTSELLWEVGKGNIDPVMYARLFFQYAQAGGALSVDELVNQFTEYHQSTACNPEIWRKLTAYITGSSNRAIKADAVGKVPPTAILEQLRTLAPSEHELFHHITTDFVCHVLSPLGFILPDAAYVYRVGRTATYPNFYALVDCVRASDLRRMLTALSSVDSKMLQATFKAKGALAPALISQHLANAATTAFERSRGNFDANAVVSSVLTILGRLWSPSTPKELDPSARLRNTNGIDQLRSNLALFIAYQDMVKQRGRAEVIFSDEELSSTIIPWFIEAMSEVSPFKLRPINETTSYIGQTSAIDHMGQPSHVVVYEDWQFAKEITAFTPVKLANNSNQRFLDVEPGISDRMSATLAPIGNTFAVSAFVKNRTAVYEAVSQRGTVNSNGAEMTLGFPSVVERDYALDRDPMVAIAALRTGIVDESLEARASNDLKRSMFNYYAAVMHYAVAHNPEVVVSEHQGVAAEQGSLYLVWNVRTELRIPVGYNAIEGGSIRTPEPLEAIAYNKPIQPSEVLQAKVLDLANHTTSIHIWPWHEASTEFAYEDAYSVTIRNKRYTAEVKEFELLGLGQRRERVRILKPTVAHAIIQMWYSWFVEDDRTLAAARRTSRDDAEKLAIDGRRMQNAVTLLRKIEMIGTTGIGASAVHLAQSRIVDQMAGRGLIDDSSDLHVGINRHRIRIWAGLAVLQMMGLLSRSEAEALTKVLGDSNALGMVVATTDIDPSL", "assay": "asymmetrical flow field-flow fractionation (AF4) with SDS-PAGE of fractions; Triton X-114-extracted φ6 virions (NC1 input, NC2 input); 10 mM potassium phosphate pH 7.2, 1 mM MgCl2, 0.1 mM CaCl2, 150 mM NaCl; 22 °C; proteins of the late-eluting NC peak seen by Coomassie-stained SDS-PAGE"}, "[2]": {"target": "T1, φ6 protein P1 (bacteriophage φ6)", "assay": "asymmetrical flow field-flow fractionation (AF4) with SDS-PAGE of fractions; NC (NC2 input or AF4-purified NC) treated with 25 mM EGTA, 1 mM ATP, RT, 30 min; AF4 in 10 mM potassium phosphate pH 7.2, 1 mM MgCl2, 150 mM NaCl, 20 mM EGTA; 22 °C"}}, "note": "No constants are given. Whether binding was seen depends on the method and setting. Binding calls can cover weak binding; strength is not graded here.", "data": [{"substance": "φ6 protein P7 (bacteriophage φ6)", "values": [{"measurement": "binding", "setting": "[1]", "value": "binds"}, {"measurement": "binding", "setting": "[2]", "value": "binds"}]}]}
